Assay results: patent US12697317B2, “Dosages and uses of ornithine phenylacetate for treating hyperammonemia” (priority 2019, dated 2026)

Test: PK of PAA, ORN and PAGN in severe renal impairment vs normal renal function, Study 5
[1] = normal renal function, LOPA 15 g/24 hour IV
[2] = severely impaired renal function, LOPA 7 g/24 hours IV

- mean dose normalized baseline corrected ORN AUC0-inf [1]: 64.1 µg·h/mL/g
- mean dose normalized baseline corrected ORN Cmax [1]: 2.09 µg/mL/g
- mean dose normalized baseline corrected ORN AUC0-inf [2]: 80.3 µg·h/mL/g
- mean dose normalized baseline corrected ORN Cmax [2]: 2.28 µg/mL/g
Compound: NCCC[C@H](N)C(=O)O [ORN, ornithine]
